# Some of the results follow.
# Key:
# Experiment in all cases: glycan array binding signal (z-score within array); higher = stronger binding
# Settings in all cases: glycan notation: IUPAC condensed, linker removed
# [1] = biological target: Neu5Ac(a2-3)Gal(b1-3)]Neu5Ac(a2-3)Gal(b1-4)]GlcNAc
# Outline: (§1)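 Glycan array data were curated from 3228 arrays in the Consortium for Functional Glycomics database and kept only where the protein sequence was available. Glycan names were converted to IUPAC-condensed notation, and columns mapping to the same glycan were averaged. The binding signal is a within-array Z-score, averaged across arrays of the same protein sequence at different concentrations or buffers and across linkers. Negative Z-scores can be read as non-binding.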
# [2] = biological target: Neu5Ac(a2-3)Gal(b1-4)Glc
# Outline: as §1
# [3] = biological target: Neu5Ac(a2-3)Gal(b1-4)GlcNAc
# Outline: as §1
# [4] = biological target: Neu5Ac(a2-3)Gal(b1-4)GlcNAc(b1-2)Man
# Outline: as §1
# [5] = biological target: Neu5Ac(a2-3)Gal(b1-4)GlcNAc(b1-2)Man(a1-3)[GlcNAc(b1-4)][Neu5Ac(a2-3)Gal(b1-4)GlcNAc(b1-2)Man(a1-6)]Man(b1-4)GlcNAc(b1-4)GlcNAc
# Outline: as §1
# [6] = biological target: Neu5Ac(a2-3)Gal(b1-4)GlcNAc(b1-2)Man(a1-3)[Neu5Ac(a2-3)Gal(b1-4)GlcNAc(b1-2)Man(a1-6)]Man(b1-4)GlcNAc(b1-4)GlcNAc
# Outline: as §1
# [7] = biological target: Neu5Ac(a2-3)Gal(b1-4)GlcNAc(b1-2)Man(a1-3)[Neu5Ac(a2-3)Gal(b1-4)GlcNAc(b1-2)Man(a1-6)]Man(b1-4)GlcNAc(b1-4)[Fuc(a1-6)]GlcNAc
# Outline: as §1
# [8] = biological target: Neu5Ac(a2-3)Gal(b1-4)GlcNAc(b1-2)Man(a1-3)[Neu5Ac(a2-6)Gal(b1-4)GlcNAc(b1-2)Man(a1-6)]Man(b1-4)GlcNAc(b1-4)GlcNAc
# Outline: as §1
# [9] = biological target: Neu5Ac(a2-3)Gal(b1-4)GlcNAc(b1-2)[Neu5Ac(a2-3)Gal(b1-4)GlcNAc(b1-4)]Man(a1-3)[GlcNAc(b1-4)][Neu5Ac(a2-3)Gal(b1-4)GlcNAc(b1-2)[Neu5Ac(a2-3)Gal(b1-4)GlcNAc(b1-6)]Man(a1-6)]Man(b1-4)GlcNAc(b1-4)GlcNAc
# Outline: as §1
# [10] = biological target: Neu5Ac(a2-3)Gal(b1-4)GlcNAc(b1-2)[Neu5Ac(a2-3)Gal(b1-4)GlcNAc(b1-4)]Man(a1-3)[GlcNAc(b1-4)][Neu5Ac(a2-3)Gal(b1-4)GlcNAc(b1-4)Man(a1-6)]Man(b1-4)GlcNAc(b1-4)GlcNAc
# Outline: as §1
# [11] = biological target: Neu5Ac(a2-3)Gal(b1-4)GlcNAc(b1-2)[Neu5Ac(a2-3)Gal(b1-4)GlcNAc(b1-6)]Man(a1-6)[Neu5Ac(a2-3)Gal(b1-4)GlcNAc(b1-2)Man(a1-3)][GlcNAc(b1-4)]Man(b1-4)GlcNAc(b1-4)GlcNAc
# Outline: as §1
# [12] = biological target: Neu5Ac(a2-3)Gal(b1-4)GlcNAc(b1-3)Gal
# Outline: as §1
# [13] = biological target: Neu5Ac(a2-3)Gal(b1-4)GlcNAc(b1-3)Gal(b1-3)GlcNAc
# Outline: as §1
# [14] = biological target: Neu5Ac(a2-3)Gal(b1-4)GlcNAc(b1-3)Gal(b1-4)GlcNAc
# Outline: as §1
# [15] = biological target: Neu5Ac(a2-3)Gal(b1-4)GlcNAc(b1-3)Gal(b1-4)GlcNAc(b1-2)Man(a1-3)[Neu5Ac(a2-3)Gal(b1-4)GlcNAc(b1-3)Gal(b1-4)GlcNAc(b1-2)Man(a1-6)]Man(b1-4)GlcNAc(b1-4)GlcNAc
# Outline: as §1
# [16] = biological target: Neu5Ac(a2-3)Gal(b1-4)GlcNAc(b1-3)Gal(b1-4)GlcNAc(b1-3)Gal(b1-4)GlcNAc
# Outline: as §1
# [17] = biological target: Neu5Ac(a2-3)Gal(b1-4)GlcNAc(b1-3)Gal(b1-4)GlcNAc(b1-3)Gal(b1-4)GlcNAc(b1-2)Man(a1-3)[Neu5Ac(a2-3)Gal(b1-4)GlcNAc(b1-3)Gal(b1-4)GlcNAc(b1-3)Gal(b1-4)GlcNAc(b1-2)Man(a1-6)]GalNAc
# Outline: as §1
# [18] = biological target: Neu5Ac(a2-3)Gal(b1-4)GlcNAc(b1-3)Gal(b1-4)GlcNAc(b1-3)GalNAc
# Outline: as §1
# [19] = biological target: Neu5Ac(a2-3)Gal(b1-4)GlcNAc(b1-3)Gal(b1-4)GlcNAc(b1-3)[Neu5Ac(a2-3)Gal(b1-4)GlcNAc(b1-3)Gal(b1-4)GlcNAc(b1-6)]GalNAc
# Outline: as §1
binder,measurement,setting,value
Vd7LysM (Verticillium dahliae) (protein) RRGPEPKYPPAAGTSSYCSYWVDYEGDKSCSRVLEDNVVVLKDFARWNPTVGADCSGIKAGNSYCVEAFGEPEPIEVTTTTRAATTTTQPTATTTTFANGIATPQPTQSGMVTNCNKFHWIAEGVSCSQVISFQKITLADFVKWNPSVKSDCSGMWAGVNVCVGVVGSSTDTAKPTTTAPSNGVVTPQPTQPSMVTNCNKFHWIAKGVTCQQVISYQKISLADFVKWNPSVLSDCSGMWAEVQVCVGVIGSTPTTLATTTTTAGNGVSTPLPTQPGMVTNCAKFHWVAKGVTCNQIYSFQKITLEQFVSYNPTVKSDCSGMQAEVQVCVGLIAGTTPTTTRPPTTTAPGNGVSTPQPTQPGMVTNCAKFHWVAKGVTCNQIYSFQKITLEQFVSFNPTVKSDCTGMQAEVNVCVGLIGGNPTPTQTGNGIATPTPIQPGMVSNCKKFHWIAQGVTCQQVISFQKITLADFVKWNTGVGSDCRTMWAETNVCVGV,glycan array binding signal (z-score),[1],-0.931
same,glycan array binding signal (z-score),[2],0.515
same,glycan array binding signal (z-score),[3],0.313
same,glycan array binding signal (z-score),[4],0.356
same,glycan array binding signal (z-score),[5],-0.193
same,glycan array binding signal (z-score),[6],-0.705
same,glycan array binding signal (z-score),[7],1.45
same,glycan array binding signal (z-score),[8],-0.13
same,glycan array binding signal (z-score),[9],-0.515
same,glycan array binding signal (z-score),[10],-1.67
same,glycan array binding signal (z-score),[11],-1.32
same,glycan array binding signal (z-score),[12],-0.515
same,glycan array binding signal (z-score),[13],1.03
same,glycan array binding signal (z-score),[14],-1.16
same,glycan array binding signal (z-score),[15],2.5
same,glycan array binding signal (z-score),[16],0.205
same,glycan array binding signal (z-score),[17],-1.55
same,glycan array binding signal (z-score),[18],-0.032
same,glycan array binding signal (z-score),[19],-0.119

# Pulled one by one from above, 2 records:
binder,measurement,setting,value
Vd7LysM (Verticillium dahliae) (protein) RRGPEPKYPPAAGTSSYCSYWVDYEGDKSCSRVLEDNVVVLKDFARWNPTVGADCSGIKAGNSYCVEAFGEPEPIEVTTTTRAATTTTQPTATTTTFANGIATPQPTQSGMVTNCNKFHWIAEGVSCSQVISFQKITLADFVKWNPSVKSDCSGMWAGVNVCVGVVGSSTDTAKPTTTAPSNGVVTPQPTQPSMVTNCNKFHWIAKGVTCQQVISYQKISLADFVKWNPSVLSDCSGMWAEVQVCVGVIGSTPTTLATTTTTAGNGVSTPLPTQPGMVTNCAKFHWVAKGVTCNQIYSFQKITLEQFVSYNPTVKSDCSGMQAEVQVCVGLIAGTTPTTTRPPTTTAPGNGVSTPQPTQPGMVTNCAKFHWVAKGVTCNQIYSFQKITLEQFVSFNPTVKSDCTGMQAEVNVCVGLIGGNPTPTQTGNGIATPTPIQPGMVSNCKKFHWIAQGVTCQQVISFQKITLADFVKWNTGVGSDCRTMWAETNVCVGV,glycan array binding signal (z-score),[18],-0.032
same,glycan array binding signal (z-score),[9],-0.515

# Source: the supplement of paper PMC8728848
